# Laboratory results as given in paper PMC8699236.
# By UniProt entry, the sequences of proteins in these tests, tags left out. Where a name states a change or a piece, a line headed by the entry shows the natural chain unless it says otherwise.
# UniProt O95831: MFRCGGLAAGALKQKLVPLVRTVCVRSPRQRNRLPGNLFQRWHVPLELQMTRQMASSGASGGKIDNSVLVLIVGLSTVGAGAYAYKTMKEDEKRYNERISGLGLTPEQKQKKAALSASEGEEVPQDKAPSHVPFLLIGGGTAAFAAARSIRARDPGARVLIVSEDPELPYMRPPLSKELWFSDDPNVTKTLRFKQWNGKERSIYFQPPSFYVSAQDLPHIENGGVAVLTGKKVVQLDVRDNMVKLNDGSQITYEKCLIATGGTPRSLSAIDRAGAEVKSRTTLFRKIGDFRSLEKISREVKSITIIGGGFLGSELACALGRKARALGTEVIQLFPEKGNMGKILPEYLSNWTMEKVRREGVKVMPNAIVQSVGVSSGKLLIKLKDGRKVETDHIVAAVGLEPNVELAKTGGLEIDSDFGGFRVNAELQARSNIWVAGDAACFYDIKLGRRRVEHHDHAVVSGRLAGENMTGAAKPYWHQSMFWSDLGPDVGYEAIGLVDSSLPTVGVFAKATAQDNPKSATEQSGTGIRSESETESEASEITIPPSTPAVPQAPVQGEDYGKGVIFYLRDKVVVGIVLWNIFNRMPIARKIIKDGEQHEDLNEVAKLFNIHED
# UniProt Q5T5P2: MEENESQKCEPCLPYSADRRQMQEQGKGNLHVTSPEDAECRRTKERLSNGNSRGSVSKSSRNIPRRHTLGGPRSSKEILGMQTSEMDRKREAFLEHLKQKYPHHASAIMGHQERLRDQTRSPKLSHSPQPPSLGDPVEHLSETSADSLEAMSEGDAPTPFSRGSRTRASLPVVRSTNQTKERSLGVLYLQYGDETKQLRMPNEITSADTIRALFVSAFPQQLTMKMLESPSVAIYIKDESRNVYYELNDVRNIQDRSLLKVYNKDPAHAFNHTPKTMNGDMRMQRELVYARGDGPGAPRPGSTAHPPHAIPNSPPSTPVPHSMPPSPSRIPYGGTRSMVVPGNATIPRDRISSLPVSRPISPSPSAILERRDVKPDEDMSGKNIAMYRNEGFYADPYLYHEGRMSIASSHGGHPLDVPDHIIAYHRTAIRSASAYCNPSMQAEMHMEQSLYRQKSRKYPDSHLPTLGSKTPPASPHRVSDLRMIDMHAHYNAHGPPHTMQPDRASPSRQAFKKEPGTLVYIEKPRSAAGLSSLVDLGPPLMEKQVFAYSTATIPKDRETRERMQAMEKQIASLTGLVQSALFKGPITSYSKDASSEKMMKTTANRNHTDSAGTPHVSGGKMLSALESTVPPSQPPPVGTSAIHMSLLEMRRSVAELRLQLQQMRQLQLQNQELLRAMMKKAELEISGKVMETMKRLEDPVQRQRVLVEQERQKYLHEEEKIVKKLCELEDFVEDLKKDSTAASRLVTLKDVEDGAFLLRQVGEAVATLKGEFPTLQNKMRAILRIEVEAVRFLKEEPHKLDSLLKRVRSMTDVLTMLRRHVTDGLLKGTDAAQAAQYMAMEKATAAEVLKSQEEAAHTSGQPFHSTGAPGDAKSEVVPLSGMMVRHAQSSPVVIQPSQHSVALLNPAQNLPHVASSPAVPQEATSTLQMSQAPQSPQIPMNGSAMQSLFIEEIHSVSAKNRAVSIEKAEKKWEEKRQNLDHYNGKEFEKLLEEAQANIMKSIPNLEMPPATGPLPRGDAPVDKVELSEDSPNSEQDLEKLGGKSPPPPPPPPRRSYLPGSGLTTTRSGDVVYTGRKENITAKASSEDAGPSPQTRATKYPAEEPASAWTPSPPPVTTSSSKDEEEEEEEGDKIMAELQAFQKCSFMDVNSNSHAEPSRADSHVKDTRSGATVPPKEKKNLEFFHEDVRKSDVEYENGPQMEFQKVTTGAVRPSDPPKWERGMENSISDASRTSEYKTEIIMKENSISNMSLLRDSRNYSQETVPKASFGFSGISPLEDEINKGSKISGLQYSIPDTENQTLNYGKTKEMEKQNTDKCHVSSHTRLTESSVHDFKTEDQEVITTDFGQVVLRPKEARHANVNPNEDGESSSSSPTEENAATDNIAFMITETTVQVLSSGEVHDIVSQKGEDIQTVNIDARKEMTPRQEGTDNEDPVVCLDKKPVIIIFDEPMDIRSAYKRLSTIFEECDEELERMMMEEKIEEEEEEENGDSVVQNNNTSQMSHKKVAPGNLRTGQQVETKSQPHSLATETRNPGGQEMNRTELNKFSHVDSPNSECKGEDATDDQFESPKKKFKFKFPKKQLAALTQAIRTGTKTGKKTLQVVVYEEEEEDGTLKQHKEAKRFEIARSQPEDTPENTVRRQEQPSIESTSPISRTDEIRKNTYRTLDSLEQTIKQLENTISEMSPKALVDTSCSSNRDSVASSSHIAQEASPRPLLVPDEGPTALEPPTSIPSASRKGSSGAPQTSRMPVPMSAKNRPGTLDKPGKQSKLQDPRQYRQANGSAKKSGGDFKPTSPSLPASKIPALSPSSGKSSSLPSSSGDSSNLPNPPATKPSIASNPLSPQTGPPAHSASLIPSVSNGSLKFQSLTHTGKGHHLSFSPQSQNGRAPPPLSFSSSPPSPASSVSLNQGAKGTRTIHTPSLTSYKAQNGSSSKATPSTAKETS
# UniProt P51784: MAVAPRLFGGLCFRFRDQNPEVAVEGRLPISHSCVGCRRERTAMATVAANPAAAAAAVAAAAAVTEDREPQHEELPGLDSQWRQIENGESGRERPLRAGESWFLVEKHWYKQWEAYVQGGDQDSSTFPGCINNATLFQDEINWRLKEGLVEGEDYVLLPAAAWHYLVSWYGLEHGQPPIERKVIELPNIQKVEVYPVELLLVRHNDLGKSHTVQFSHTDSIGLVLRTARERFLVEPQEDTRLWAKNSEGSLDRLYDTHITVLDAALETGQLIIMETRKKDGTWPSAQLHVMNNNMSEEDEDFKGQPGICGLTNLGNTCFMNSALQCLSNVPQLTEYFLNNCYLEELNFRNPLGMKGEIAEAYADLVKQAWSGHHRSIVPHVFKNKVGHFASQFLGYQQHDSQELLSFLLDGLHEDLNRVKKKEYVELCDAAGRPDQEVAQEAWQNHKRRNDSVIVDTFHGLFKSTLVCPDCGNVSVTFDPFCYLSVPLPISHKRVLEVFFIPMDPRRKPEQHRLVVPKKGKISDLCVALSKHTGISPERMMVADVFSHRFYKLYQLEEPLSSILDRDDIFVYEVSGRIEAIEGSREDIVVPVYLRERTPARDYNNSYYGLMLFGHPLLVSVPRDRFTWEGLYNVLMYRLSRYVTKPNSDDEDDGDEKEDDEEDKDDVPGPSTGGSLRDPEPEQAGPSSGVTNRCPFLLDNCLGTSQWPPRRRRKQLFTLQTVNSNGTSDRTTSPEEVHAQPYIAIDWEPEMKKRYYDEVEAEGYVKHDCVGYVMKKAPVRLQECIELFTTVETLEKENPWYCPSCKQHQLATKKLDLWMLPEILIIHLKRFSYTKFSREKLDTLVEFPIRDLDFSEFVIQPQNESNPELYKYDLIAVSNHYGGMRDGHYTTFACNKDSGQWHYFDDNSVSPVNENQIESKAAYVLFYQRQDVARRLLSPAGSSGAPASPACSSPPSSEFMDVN
# UniProt P34932: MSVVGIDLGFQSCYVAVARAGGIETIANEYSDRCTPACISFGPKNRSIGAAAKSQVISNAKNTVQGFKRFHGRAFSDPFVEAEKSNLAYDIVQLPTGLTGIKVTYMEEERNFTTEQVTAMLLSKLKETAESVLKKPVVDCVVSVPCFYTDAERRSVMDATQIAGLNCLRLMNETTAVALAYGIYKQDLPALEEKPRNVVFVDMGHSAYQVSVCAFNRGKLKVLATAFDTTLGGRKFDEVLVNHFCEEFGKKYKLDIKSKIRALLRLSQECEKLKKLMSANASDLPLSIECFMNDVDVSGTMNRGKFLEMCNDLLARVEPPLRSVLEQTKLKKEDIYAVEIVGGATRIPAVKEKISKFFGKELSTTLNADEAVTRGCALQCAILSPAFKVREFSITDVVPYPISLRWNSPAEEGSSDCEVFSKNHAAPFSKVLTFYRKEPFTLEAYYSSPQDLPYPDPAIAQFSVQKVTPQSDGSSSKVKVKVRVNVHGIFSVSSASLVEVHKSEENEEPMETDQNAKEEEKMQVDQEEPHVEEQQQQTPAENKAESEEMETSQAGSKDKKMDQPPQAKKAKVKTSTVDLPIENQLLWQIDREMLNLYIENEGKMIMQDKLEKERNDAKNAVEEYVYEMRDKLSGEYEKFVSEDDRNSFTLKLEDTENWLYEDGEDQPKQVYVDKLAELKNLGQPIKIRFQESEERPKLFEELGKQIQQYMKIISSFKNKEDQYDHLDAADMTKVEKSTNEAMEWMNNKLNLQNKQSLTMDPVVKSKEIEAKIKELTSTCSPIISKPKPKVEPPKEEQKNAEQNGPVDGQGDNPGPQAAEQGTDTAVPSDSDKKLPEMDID
# UniProt O95757: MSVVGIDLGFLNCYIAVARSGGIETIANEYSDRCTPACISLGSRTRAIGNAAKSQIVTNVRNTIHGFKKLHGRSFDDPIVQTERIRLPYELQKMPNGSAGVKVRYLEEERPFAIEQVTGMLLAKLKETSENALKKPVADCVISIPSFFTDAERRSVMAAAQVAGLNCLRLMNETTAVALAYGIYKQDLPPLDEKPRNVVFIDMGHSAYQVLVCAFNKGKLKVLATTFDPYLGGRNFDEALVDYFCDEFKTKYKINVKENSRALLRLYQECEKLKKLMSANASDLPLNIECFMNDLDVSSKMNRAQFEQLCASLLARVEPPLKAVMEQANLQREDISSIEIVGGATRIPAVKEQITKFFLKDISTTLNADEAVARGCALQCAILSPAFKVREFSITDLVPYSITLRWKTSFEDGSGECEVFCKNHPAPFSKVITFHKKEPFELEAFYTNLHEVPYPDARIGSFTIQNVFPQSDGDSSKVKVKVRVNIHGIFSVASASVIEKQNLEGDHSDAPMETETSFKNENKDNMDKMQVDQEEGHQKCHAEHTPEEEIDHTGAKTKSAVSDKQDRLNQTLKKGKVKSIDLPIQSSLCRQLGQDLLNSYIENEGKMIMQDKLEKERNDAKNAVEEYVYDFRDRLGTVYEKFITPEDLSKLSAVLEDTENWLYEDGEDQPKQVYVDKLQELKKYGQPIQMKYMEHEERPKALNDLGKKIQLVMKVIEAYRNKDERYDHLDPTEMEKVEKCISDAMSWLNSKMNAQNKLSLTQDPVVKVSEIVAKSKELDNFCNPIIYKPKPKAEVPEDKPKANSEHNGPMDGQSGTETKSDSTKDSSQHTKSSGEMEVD
# UniProt O00629: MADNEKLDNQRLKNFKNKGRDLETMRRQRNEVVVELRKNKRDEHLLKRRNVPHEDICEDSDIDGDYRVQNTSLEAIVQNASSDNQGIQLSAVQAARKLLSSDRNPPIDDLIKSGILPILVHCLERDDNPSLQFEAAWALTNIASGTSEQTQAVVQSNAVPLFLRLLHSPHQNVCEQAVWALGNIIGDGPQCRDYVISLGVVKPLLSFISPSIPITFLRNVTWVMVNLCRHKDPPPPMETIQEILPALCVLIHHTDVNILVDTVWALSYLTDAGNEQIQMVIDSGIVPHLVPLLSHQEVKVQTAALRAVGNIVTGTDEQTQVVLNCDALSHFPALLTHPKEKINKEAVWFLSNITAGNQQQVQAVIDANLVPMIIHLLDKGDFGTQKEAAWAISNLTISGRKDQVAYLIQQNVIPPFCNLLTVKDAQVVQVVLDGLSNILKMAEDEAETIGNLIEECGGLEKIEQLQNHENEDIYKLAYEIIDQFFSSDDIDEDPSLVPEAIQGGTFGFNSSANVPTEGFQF
# UniProt P25787: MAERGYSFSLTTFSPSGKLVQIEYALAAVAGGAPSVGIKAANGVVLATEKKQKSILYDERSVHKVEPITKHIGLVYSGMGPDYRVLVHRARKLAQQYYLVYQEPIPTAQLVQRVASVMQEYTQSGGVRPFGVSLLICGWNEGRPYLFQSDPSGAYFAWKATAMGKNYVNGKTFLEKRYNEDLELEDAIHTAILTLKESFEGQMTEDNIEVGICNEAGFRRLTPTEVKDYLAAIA
# UniProt O14818: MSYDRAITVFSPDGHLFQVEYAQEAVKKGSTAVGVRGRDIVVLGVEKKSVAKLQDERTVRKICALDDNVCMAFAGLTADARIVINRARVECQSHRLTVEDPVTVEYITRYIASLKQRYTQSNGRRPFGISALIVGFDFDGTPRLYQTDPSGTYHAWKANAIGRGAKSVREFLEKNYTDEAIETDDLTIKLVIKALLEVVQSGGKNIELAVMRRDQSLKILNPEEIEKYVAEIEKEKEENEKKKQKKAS
# UniProt P49721: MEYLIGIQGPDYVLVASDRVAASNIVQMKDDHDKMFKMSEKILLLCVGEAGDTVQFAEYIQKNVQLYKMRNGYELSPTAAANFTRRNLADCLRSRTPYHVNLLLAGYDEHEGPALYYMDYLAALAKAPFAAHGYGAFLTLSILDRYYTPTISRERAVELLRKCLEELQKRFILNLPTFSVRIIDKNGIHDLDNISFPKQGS
# T1: TRIB2 GFP-fusion protein (human) (UniProt Q92519)
# T1 sequence: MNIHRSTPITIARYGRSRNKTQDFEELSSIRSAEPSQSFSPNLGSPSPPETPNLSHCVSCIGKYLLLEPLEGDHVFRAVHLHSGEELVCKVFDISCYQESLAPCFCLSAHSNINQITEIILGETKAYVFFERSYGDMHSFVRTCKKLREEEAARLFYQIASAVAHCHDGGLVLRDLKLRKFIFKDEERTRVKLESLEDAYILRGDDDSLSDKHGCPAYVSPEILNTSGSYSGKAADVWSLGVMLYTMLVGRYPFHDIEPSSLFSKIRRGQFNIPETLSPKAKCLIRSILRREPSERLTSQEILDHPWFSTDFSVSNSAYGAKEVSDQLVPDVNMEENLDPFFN
# T2: TRIB1 GFP-fusion protein (human) (UniProt Q96RU8)
# T2 sequence: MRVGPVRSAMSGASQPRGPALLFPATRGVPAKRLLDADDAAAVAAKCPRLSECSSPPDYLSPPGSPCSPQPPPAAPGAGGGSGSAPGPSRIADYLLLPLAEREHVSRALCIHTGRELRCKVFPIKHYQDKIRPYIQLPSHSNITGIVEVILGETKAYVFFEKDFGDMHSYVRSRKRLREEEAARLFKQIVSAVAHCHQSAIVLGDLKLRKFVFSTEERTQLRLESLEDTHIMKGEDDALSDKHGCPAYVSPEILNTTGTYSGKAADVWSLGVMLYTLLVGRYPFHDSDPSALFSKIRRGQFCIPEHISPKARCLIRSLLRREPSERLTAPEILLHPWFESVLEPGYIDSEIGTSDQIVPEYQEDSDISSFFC
# B1: WD Repeat Domain 37 (protein, UniProt Q9Y2I8 1-494)
# chain: MPTESASCSTARQTKQKRKSHSLSIRRTNSSEQERTGLPRDMLEGQDSKLPSSVRSTLLELFGQIEREFENLYIENLELRREIDTLNERLAAEGQAIDGAELSKGQLKTKASHSTSQLSQKLKTTYKASTSKIVSSFKTTTSRAACQLVKEYIGHRDGIWDVSVAKTQPVVLGTASADHTALLWSIETGKCLVKYAGHVGSVNSIKFHPSEQLALTASGDQTAHIWRYAVQLPTPQPVADTSISGEDEVECSDKDEPDLDGDVSSDCPTIRVPLTSLKSHQGVVIASDWLVGGKQAVTASWDRTANLYDVETSELVHSLTGHDQELTHCCTHPTQRLVVTSSRDTTFRLWDFRDPSIHSVNVFQGHTDTVTSAVFTVGDNVVSGSDDRTVKVWDLKNMRSPIATIRTDSAINRINVCVGQKIIALPHDNRQVRLFDMSGVRLARLPRSSRQGHRRMVCCSAWSEDHPVCNLFTCGFDRQAIGWNINIPALLQEK
# B2: BTB/POZ Domain-Containing Protein KCTD21 (protein, UniProt Q4G0X4 1-260)
# chain: MSDPITLNVGGKLYTTSLATLTSFPDSMLGAMFSGKMPTKRDSQGNCFIDRDGKVFRYILNFLRTSHLDLPEDFQEMGLLRREADFYQVQPLIEALQEKEVELSKAEKNAMLNITLNQRVQTVHFTVREAPQIYSLSSSSMEVFNANIFSTSCLFLKLLGSKLFYCSNGNLSSITSHLQDPNHLTLDWVANVEGLPEEEYTKQNLKRLWVVPANKQINSFQVFVEEVLKIALSDGFCIDSSHPHALDFMNNKIIRLIRYR
# B3: Ferrochelatase (protein, UniProt P22830 55-423)
# chain: GAKPQVQPQKRKPKTGILMLNMGGPETLGDVHDFLLRLFLDRDLMTLPIQNKLAPFIAKRRTPKIQEQYRRIGGGSPIKIWTSKQGEGMVKLLDELSPNTAPHKYYIGFRYVHPLTEEAIEEMERDGLERAIAFTQYPQYSCSTTGSSLNAIYRYYNQVGRKPTMKWSTIDRWPTHHLLIQCFADHILKELDHFPLEKRSEVVILFSAHSLPMSVVNRGDPYPQEVSATVQKVMERLEYCNPYRLVWQSKVGPMPWLGPQTDESIKGLCERGRKNILLVPIAFTSDHIETLYELDIEYSQVLAKECGVENIRRAESLNGNPLFSKALADLVHSHIQSNELCSKQLTLSCPLCVNPVCRETKSFFTSQQL
# B4: IRON-Sulfur Cluster Assembly 1 (protein, UniProt Q9BUE6 13-129)
# chain: VSKRKLQPTRAALTLTPSAVNKIKQLLKDKPEHVGVKVGVRTRGCNGLSYTLEYTKTKGDSDEEVIQDGVRVFIEKKAQLTLLGTEMDYVEDKLSSEFVFNNPNIKGTCGCGESFNI
# B5: Protein Phosphatase Mg2+ Dependent 1G (protein, UniProt O15355 1-546)
# chain: MGAYLSQPNTVKCSGDGVGAPRLPLPYGFSAMQGWRVSMEDAHNCIPELDSETAMFSVYDGHGGEEVALYCAKYLPDIIKDQKAYKEGKLQKALEDAFLAIDAKLTTEEVIKELAQIAGRPTEDEDEKEKVADEDDVDNEEAALLHEEATMTIEELLTRYGQNCHKGPPHSKSGGGTGEEPGSQGLNGEAGPEDSTRETPSQENGPTAKAYTGFSSNSERGTEAGQVGEPGIPTGEAGPSCSSASDKLPRVAKSKFFEDSEDESDEAEEEEEDSEECSEEEDGYSSEEAENEEDEDDTEEAEEDDEEEEEEMMVPGMEGKEEPGSDSGTTAVVALIRGKQLIVANAGDSRCVVSEAGKALDMSYDHKPEDEVELARIKNAGGKVTMDGRVNGGLNLSRAIGDHFYKRNKNLPPEEQMISALPDIKVLTLTDDHEFMVIACDGIWNVMSSQEVVDFIQSKISQRDENGELRLLSSIVEELLDQCLAPDTSGDGTGCDNMTCIIICFKPRNTAELQPESGKRKLEEVLSTEGAEENGNSDKKKKAKRD
# B6: DnaJ Heat Shock Protein Family Member C10 (protein, UniProt Q8IXB1 33-793)
# chain: DQDFYSLLGVSKTASSREIRQAFKKLALKLHPDKNPNNPNAHGDFLKINRAYEVLKDEDLRKKYDKYGEKGLEDNQGGQYESWNYYRYDFGIYDDDPEIITLERREFDAAVNSGELWFVNFYSPGCSHCHDLAPTWRDFAKEVDGLLRIGAVNCGDDRMLCRMKGVNSYPSLFIFRSGMAPVKYHGDRSKESLVSFAMQHVRSTVTELWTGNFVNSIQTAFAAGIGWLITFCSKGGDCLTSQTRLRLSGMLDGLVNVGWMDCATQDNLCKSLDITTSTTAYFPPGATLNNKEKNSILFLNSLDAKEIYLEVIHNLPDFELLSANTLEDRLAHHRWLLFFHFGKNENSNDPELKKLKTLLKNDHIQVGRFDCSSAPDICSNLYVFQPSLAVFKGQGTKEYEIHHGKKILYDILAFAKESVNSHVTTLGPQNFPANDKEPWLVDFFAPWCPPCRALLPELRRASNLLYGQLKFGTLDCTVHEGLCNMYNIQAYPTTVVFNQSNIHEYEGHHSAEQILEFIEDLMNPSVVSLTPTTFNELVTQRKHNEVWMVDFYSPWCHPCQVLMPEWKRMARTLTGLINVGSIDCQQYHSFCAQENVQRYPEIRFFPPKSNKAYHYHSYNGWNRDAYSLRIWGLGFLPQVSTDLTPQTFSEKVLQGKNHWVIDFYAPWCGPCQNFAPEFELLARMIKGKVKAGKVDCQAYAQTCQKAGIRAYPTVKFYFYERAKRNFQEEQINTRDAKAIAALISEKLETLRNQGKRNKDEL
# Target: T1, TRIB2 GFP-fusion protein (human)
# Test: affinity purification with mass spectrometry; GFP-fusion bait from lysate of transfected HEK293T cells on GFP-Trap beads, 2 h at 4 °C; lysis buffer 50 mM Tris pH 8.0, 1 mM EDTA, 0.1% NP40, 250 mM NaCl, 10% glycerol; on-bead digestion, LC-MS, label-free, against GFP control (or mutant against mutant or wild type)
row,binding,Molecule
1,binds,3-Hydroxybutyrate Dehtdrogenase 2 (from UniProt Q9BUT1 1-245)
2,binds,Apoptosis inducing Factor Mitochondrial Associated 1 (from UniProt O95831)
3,binds,Regulatory Associated Protein of MTOR Complex 1 (from UniProt Q8N122 1-1335)
4,binds,Sickle tail Protein Homolog (from UniProt Q5T5P2 1-1943)
5,binds,Ubiquitin Specific Peptidase 11 (from UniProt P51784 1-963)
6,binds,Zinc Finger with KRAB and SCAN Domains 1 (from UniProt P17029 1-563)
7,binds,B1
8,binds,B2
9,binds,B3
10,binds,B4

# Target: T2, TRIB1 GFP-fusion protein (human)
# Test: as above
row,binding,Molecule
1,binds,26S Proteosome Ubiquitin Receptor (from UniProt Q16186 1-407)
2,binds,Heat Shock Protein A Member 4 (from UniProt P34932 1-840)
3,binds,Heat Shock Protein Family A Member 4 Like (from UniProt O95757 1-839)
4,binds,Heat Shock Protein Family H Member 1 (from UniProt Q92598 1-858)
5,binds,Karyopherin Subunit Alpha 3 (from UniProt O00505 1-521)
6,binds,Karyopherin Subunit Alpha 4 (from UniProt O00629 1-521)
7,binds,Proteasome 26S Subunit Ubiquitin receptor 4 (from UniProt P55036 1-377)
8,binds,Proteosome 20S subunit Alpha 1 (from UniProt P25786 1-263)
9,binds,Proteosome 20S subunit Alpha 2 (from UniProt P25787 1-234)
10,binds,Proteosome 20S subunit Alpha 5 (from UniProt P28066 1-241)
11,binds,Proteosome 20S subunit Alpha 7 (from UniProt O14818 1-248)
12,binds,Proteosome 20S subunit Beta 2 (from UniProt P49721 1-201)
13,binds,Proteosome 26S subunit ATPase 2 (from UniProt P35998 1-433)
14,binds,Proteosome 26S subunit ATPase 6 (from UniProt P62333 1-389)
15,binds,STIP1 Homology and U-Box Containing Protein 1 (from UniProt Q9UNE7 1-303)
16,binds,protein kinase AKT/PKB (human (endogenous in HEK293T and MCF7))
17,binds,B5
18,binds,B6

# No constants are given. Whether binding was seen depends on the method and setting. Binding seen in cells or lysates may run through a third protein. These calls come from enrichment with a bait or labelling near it, and not all partners need be listed. Where a sequence is shown, tags or fusion partners need not be part of it.
